Reference: article PMC10392139
No constants are given. Whether binding was seen depends on the method and setting. Binding seen in cells or lysates may run through a third protein. Some entries that bind do so weakly or less than the wild type.

The chains behind the UniProt entries cited, without tags or fusion partners. Residues count along the entry.
UniProt P17931: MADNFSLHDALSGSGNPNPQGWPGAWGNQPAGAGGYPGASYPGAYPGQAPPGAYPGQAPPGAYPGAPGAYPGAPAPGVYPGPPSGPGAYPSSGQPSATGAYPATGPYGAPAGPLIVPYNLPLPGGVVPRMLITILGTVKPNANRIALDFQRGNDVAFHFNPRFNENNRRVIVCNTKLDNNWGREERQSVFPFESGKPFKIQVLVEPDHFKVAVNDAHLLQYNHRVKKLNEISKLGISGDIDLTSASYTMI
UniProt P09758, residues 27-323: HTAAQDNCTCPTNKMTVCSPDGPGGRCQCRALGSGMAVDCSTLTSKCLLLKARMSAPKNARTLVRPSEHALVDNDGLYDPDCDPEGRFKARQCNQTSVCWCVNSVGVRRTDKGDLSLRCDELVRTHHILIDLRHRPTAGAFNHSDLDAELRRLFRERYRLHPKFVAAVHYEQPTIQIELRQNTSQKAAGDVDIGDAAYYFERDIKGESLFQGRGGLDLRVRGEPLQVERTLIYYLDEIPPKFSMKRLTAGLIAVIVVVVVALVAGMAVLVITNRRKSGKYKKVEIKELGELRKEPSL
UniProt Q9NQB0: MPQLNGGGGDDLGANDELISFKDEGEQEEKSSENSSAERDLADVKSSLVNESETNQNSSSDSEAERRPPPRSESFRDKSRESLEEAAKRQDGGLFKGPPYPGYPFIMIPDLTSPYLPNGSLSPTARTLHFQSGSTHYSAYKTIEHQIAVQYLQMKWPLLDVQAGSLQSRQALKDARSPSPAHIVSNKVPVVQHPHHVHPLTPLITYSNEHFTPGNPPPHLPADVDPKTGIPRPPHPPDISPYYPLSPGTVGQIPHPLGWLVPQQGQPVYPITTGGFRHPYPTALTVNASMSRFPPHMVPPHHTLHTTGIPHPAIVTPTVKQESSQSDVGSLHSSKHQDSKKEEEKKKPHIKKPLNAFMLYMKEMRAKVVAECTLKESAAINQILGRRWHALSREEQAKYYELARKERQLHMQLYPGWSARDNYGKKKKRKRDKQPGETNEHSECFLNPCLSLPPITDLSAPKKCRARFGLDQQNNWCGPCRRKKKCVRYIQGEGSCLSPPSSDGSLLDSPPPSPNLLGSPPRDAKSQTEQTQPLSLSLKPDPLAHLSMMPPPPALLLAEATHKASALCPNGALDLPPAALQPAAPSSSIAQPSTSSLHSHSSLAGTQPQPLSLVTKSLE

How the values were obtained:
galectin-3 = galectin-3 (UniProt P17931); assay: pull-down; galectin-3-Sepharose incubated with cell lysates (HCT116 Trop-2 transfectant, MCF-7, DU145) at 4 °C for 3 h in the absence of lactose; washed with PBS; immunoblot for Trop-2; only the target purified
[1] = biological target: FLAG- and HA-tagged wild-type Trop-2 (UniProt P09758); assay: co-IP; immunoprecipitates from lysates of WT-HA HCT116 cells with anti-HA-tag antibodies; immunoblot for β-catenin and TCF4

Substance | binding (galectin-3) | binding [1]
FLAG- and HA-tagged wild-type Trop-2 (from UniProt P09758 27-323) | binds | 
Trop-2 expressed in MCF-7 cells and DU145 cells (from UniProt P09758 27-323) | binds | 
transcription factor 4 (TCF4) (from UniProt Q9NQB0 1-619) |  | binds
